Measurements reported in PubChem BioAssay AID248 (DTP/NCI, 2004).
The list does not hold the whole screen: it is rich in T/C values a quarter to a half above the control, in often repeated tests (any T/C) and in doses without a T/C. Further doses and runs are listed elsewhere. T/C gives the treated animals as a percentage of the vehicle group. Some entries give survivors of the animals treated and no T/C: the source holds a T/C of zero for them, seemingly a mark for toxic or unscored doses. Some doses without a T/C left all or most animals alive at the check, yet need not have been tolerated: survival well below the control is almost never listed, so the zero probably covers shortened survival too. Counts of survivors are from the toxicity check (mostly the fifth day) where no day follows; animals may have died later. Schedule codes are those of the source, read here as Q, the interval in days (D) or hours (H), X, the number of doses. Some schedules carry Z or #; the key to these is not given. Some molecules as drawn cover several salts, stereoisomers or complexes of the source; a dose is that of the sample tested. For survival time, the PubChem record calls one and a half times the control and up active, and a quarter to a half above the control has no call in these data; cut-offs in other NCI protocols can differ. Some entries were tested several times; the results are listed from low to high. Marks such as (2×) count equal records among those shown.

Test system: L1210 leukemia ip in BDF1 mice, survival T/C
Assay: NCI In Vivo Anticancer Drug Screen. Data for tumor model L1210 Leukemia (intraperitoneal) in B6D2F1 (BDF1) mice
Settings: T/C endpoint: mean survival time, higher T/C = longer survival
[1] = dose: 100.0 mg/kg/injection, schedule: Q01DX009 (ip), vehicle: saline
[2] = dose: 400.0 mg/kg/injection, schedule: Q04DX003 (ip), vehicle: saline

SMILES: NC(=S)N/N=C/c1ccc(Cl)cn1
- survivor count (dose: 37.5 mg/kg/injection, schedule: Q01DX001 (ip), vehicle: saline with Tween-80): 0 of 10
- survivor count (dose: 37.5 mg/kg/injection, schedule: Q04DX003 (ip), vehicle: saline with Tween-80): 3 of 10
- survivor count (dose: 56.3 mg/kg/injection, schedule: Q01DX001 (ip), vehicle: saline with Tween-80): 0 of 10

SMILES: CCC1(O)C(=O)OCc2c1cc1n(c2=O)CCC1 (stereo not given)
- T/C (dose: 100.0 mg/kg/injection, schedule: Q01DX001 (ip), vehicle: saline): 125 % of control

SMILES: CCC1CN2CCc3cc(OC)c(OC)cc3C2CC1CC1c2cc(OC)c(OC)cc2CCN1C(=O)C1CCCN1 (stereo not given)
- survivor count (dose: 400.0 mg/kg/injection, schedule: Q01DX001 (ip), vehicle: saline): 0 of 4

SMILES: Cc1cccc([P+](Cc2ccccc2)(c2cccc(C)c2)c2cccc(C)c2)c1
- survivor count (dose: 30.0 mg/kg/injection, schedule: Q01DX001 (ip), vehicle: carboxymethylcellulose (CMC)): 1 of 6
- survivor count (dose: 60.0 mg/kg/injection, schedule: Q01DX001 (ip), vehicle: carboxymethylcellulose (CMC)): 2 of 6
- survivor count (dose: 75.0 mg/kg/injection, schedule: Q01DX001 (ip), vehicle: carboxymethylcellulose (CMC)): 2 of 6
- survivor count (dose: 150.0 mg/kg/injection, schedule: Q01DX001 (ip), vehicle: carboxymethylcellulose (CMC)): 0 of 6
- survivor count (dose: 300.0 mg/kg/injection, schedule: Q01DX001 (ip), vehicle: carboxymethylcellulose (CMC)): 0 of 6

SMILES: O=c1ccc2ccccc2[nH]1
- survivor count (dose: 400.0 mg/kg/injection, schedule: Q01DX001 (ip), vehicle: other): 1 of 4

SMILES: N#CCCCN1CCCCCC1
- survivor count [1]: 3 of 6

SMILES: NC(Cc1cc([N+](=O)[O-])ccc1CN(CCCl)CCCl)C(=O)O (stereo not given)
- T/C (dose: 2.16 mg/kg/injection, schedule: Q04DX003 (ip), vehicle: saline): 136 % of control
- T/C (dose: 3.6 mg/kg/injection, schedule: Q01DX001 (ip), vehicle: saline): 130 % of control
- T/C (dose: 3.6 mg/kg/injection, schedule: Q04DX003 (ip), vehicle: saline): 137 % of control
- T/C (dose: 6.0 mg/kg/injection, schedule: Q01DX001 (ip), vehicle: saline): 135 % of control
- survivor count (dose: 27.8 mg/kg/injection, schedule: Q01DX001 (ip), vehicle: saline): 5 of 8

SMILES: CC(C)(C)OC(=O)NCC(=O)O
- survivor count [2]: 2 of 6

SMILES: NC(=O)c1ccc([N+](=O)[O-])s1
- survivor count (dose: 200.0 mg/kg/injection, schedule: Q04DX003 (ip), vehicle: Klucel (hydroxypropylcellulose) (HPC)): 0 of 6
- survivor count (dose: 400.0 mg/kg/injection, schedule: Q04DX003 (ip), vehicle: Klucel (hydroxypropylcellulose) (HPC)): 0 of 6

SMILES: OCC1=CCC2c3[nH]c4ccccc4c3CCN2C1 (stereo not given)
- survivor count (dose: 400.0 mg/kg/injection, schedule: Q04DX003 (ip), vehicle: saline with Tween-80): 2 of 6

SMILES: Nc1nc2c(nnn2C2OC(COP(=O)(O)O)C(O)C2O)c(=O)[nH]1 (stereo not given)
- T/C (dose: 40.0 mg/kg/injection, schedule: Q01DX Z (ip), vehicle: other): 126 % of control

SMILES: Cc1ccc(OCC(=O)Nc2c(Cl)cc(Cl)cc2Cl)c(C)c1
- survivor count (dose: 50.0 mg/kg/injection, schedule: Q04DX002 (ip), vehicle: gum acacia): 3 of 3

SMILES: CCOC(=O)c1cc(=O)c2c(ccc3cc(OC)ccc32)[nH]1
- T/C (dose: 12.5 mg/kg/injection, schedule: Q04DX002 (ip), vehicle: carboxymethylcellulose (CMC)): 92, 97, 98, 100 % of control
- T/C (dose: 25.0 mg/kg/injection, schedule: Q04DX002 (ip), vehicle: carboxymethylcellulose (CMC)): 95, 96, 108, 126 % of control
- T/C (dose: 50.0 mg/kg/injection, schedule: Q04DX002 (ip), vehicle: carboxymethylcellulose (CMC)): 96, 103, 104 % of control (2×)

SMILES: Nc1nc(SCc2ccccc2Cl)cc(C(=O)O)n1
- survivor count (dose: 25.0 mg/kg/injection, schedule: Q01DX Z (ip), vehicle: methylcellulose (MC)): 5 of 6
- survivor count (dose: 100.0 mg/kg/injection, schedule: Q01DX Z (ip), vehicle: methylcellulose (MC)): 0 of 6
- survivor count (dose: 200.0 mg/kg/injection, schedule: Q01DX Z (ip), vehicle: methylcellulose (MC)): 0 of 6

SMILES: c1ccc2c(c1)CC1CCCCN1C2 (stereo not given)
- survivor count (dose: 75.0 mg/kg/injection, schedule: Q01DX009 (ip), vehicle: Klucel (hydroxypropylcellulose) (HPC)): 3 of 6
- survivor count [1]: 0 of 6
- survivor count (dose: 115.0 mg/kg/injection, schedule: Q01DX009 (ip), vehicle: Klucel (hydroxypropylcellulose) (HPC)): 5 of 6
- survivor count (dose: 170.0 mg/kg/injection, schedule: Q01DX009 (ip), vehicle: Klucel (hydroxypropylcellulose) (HPC)): 0 of 6
- survivor count (dose: 200.0 mg/kg/injection, schedule: Q04DX003 (ip), vehicle: saline): 1 of 6
- survivor count [2]: 0 of 6
